Data from the primary screen of doi:10.1371/journal.pone.0140310, rounded.

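The test systems are human melanoma cell lines, treated with a single drug for 72 h and then stained and imaged. The read-out is the fraction of cleaved-PARP-positive nuclei, in % of that fraction in the DMSO control; 200 means twice the control level of this apoptosis marker. Every drug was used at one fixed concentration, the higher of two screened. The file gives one value for each drug and line, without errors, so small differences may be noise. The marker varies much from line to line, for technical or biological reasons.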 Only some of the drugs and lines screened are listed, without regard to their results.

Compound	WM1716	COLO 792	WM3526	RPMI-7951	MZ2-MEL	A2058	MeWo	IPC-298	COLO 800	MEL-HO	WM3619	COLO 829
CCCS(=O)(=O)Nc1ccc(F)c(C(=O)c2c[nH]c3ncc(Cl)cc23)c1F at 0.4 µM	447	90.7	252	71.3	182	115	154	44.1	85.0	83.4	78.2	438
Cc1cc(N2CCOCC2)cc2[nH]c(-c3c(NC[C@@H](O)c4cccc(Cl)c4)cc[nH]c3=O)nc12 at 1 µM	153	214	113	53.5	132	143	45.4	38.0	246	82.7	120	151
O=C(CCCCCCC(=O)Nc1ccccc1)NO at 0.4 µM	18.3	53.2	73.3	75.9	31.7	36.6	62.5	67.2	117	130	106	70.5
Cc1ccc(NC(=O)c2cccc(N(C)C)c2)cc1NC(=O)c1ccc(O)cc1 at 10 µM	111	144	157	259	73.4	91.5	120	144	125	221	112	40.9
CC1(C)NC(=O)N(c2ccc([N+](=O)[O-])c(C(F)(F)F)c2)C1=O at 5 µM	82.1	97.6	110	77.9	53.1	83.0	76.9	41.7	78.1	39.8	51.3	44.0
Cc1cc(Nc2cc(N3CCN(C)CC3)nc(Sc3ccc(NC(=O)C4CC4)cc3)n2)n[nH]1 at 0.03 µM	122	89.1	154	135	166	211	169	145	304	40.9	141	197
CN(C)S(=O)(=O)c1ccc2c(c1)/C(=C/c1cc3c([nH]1)CCCC3)C(=O)N2 at 2 µM	126	205	126	264	144	186	231	250	161	76.3	122	76.0
CC(C)(C)c1cnc(CSc2cnc(NC(=O)C3CCNCC3)s2)o1 at 0.05 µM	141	133	139	100	139	177	187	123	70.7	71.1	103	31.0
NC1(c2ccc(-c3nc4ccn5c(=O)[nH]nc5c4cc3-c3ccccc3)cc2)CCC1 at 2 µM	77.2	346	143	103	201	197	94.9	155	174	112	138	159
CS(=O)(=O)c1ccc(C(=O)Nc2ccc(Cl)c(-c3ccccn3)c2)c(Cl)c1 at 5 µM	111	94.5	120	94.5	169	115	125	277	89.9	78.0	94.6	72.5
C/C(O)=C(\C#N)C(=O)Nc1cc(Br)ccc1Br at 10 µM	86.2	78.4	85.0	80.6	133	124	85.5	29.7	170	72.0	88.6	135
Cn1c(Nc2ccc(C(F)(F)F)cc2)nc2cc(Oc3ccnc(-c4ncc(C(F)(F)F)[nH]4)c3)ccc21 at 0.4 µM	96.5	1180	573	167	84.7	172	97.9	223	88.6	238	158	226
CN(NC(=O)CC(=O)NN(C)C(=S)c1ccccc1)C(=S)c1ccccc1 at 0.03 µM	82.4	652	57.6	34.3	110	2930	848	42.1	1170	77.0	1720	203
CCCCCCCCCCCCCCCCCCOP(=O)([O-])OC1CC[N+](C)(C)CC1 at 2 µM	123	121	118	504	138	182	69.0	84.4	168	48.5	92.8	54.9
Nc1ncn([C@H]2C[C@H](O)[C@@H](CO)O2)c(=O)n1 at 0.5 µM	112	92.6	55.1	62.1	106	255	126	114	46.1	32.0	202	262
CC(C)CCN1c2nc(Nc3cc(F)c(O)c(F)c3)ncc2N(C)C(=O)C1C (configuration not stated) at 1 µM	152	70.8	95.8	191	77.1	128	226	121	99.5	90.4	115	132
CNC(=O)c1cc(Oc2ccc(NC(=O)Nc3ccc(Cl)c(C(F)(F)F)c3)cc2)ccn1 at 2 µM	70.0	40.9	114	294	31.5	67.3	41.0	121	59.6	132	89.1	120
COc1ccc(-c2ccc3c(N4CCOCC4)nc(N4C[C@@H](C)O[C@@H](C)C4)nc3n2)cc1CO at 0.1 µM	38.5	155	33.4	44.8	56.0	34.3	112	68.6	118	139	106	77.3
C[As](C)SC[C@H](NC(=O)CC[C@H](N)C(=O)O)C(=O)NCC(=O)O at 2 µM	174	165	119	57.7	141	179	246	216	149	90.8	87.0	149
C[C@]1(O)C[C@@H](c2nc(-c3ccc4ccc(-c5ccccc5)nc4c3)c3c(N)nccn32)C1 at 2 µM	83.4	77.5	103	73.5	111	94.8	102	33.9	171	133	108	73.4
CS(=O)(=O)CCNCc1ccc(-c2ccc3ncnc(Nc4ccc(OCc5cccc(F)c5)c(Cl)c4)c3c2)o1 at 4 µM	39.3	207	231	170	43.1	124	79.8	36.6	223	46.2	128	108
N#CC[C@H](C1CCCC1)n1cc(-c2ncnc3[nH]ccc23)cn1 at 5 µM	81.8	166	102	133	114	117	186	30.9	107	44.3	77.4	81.9
CN(c1ncccc1CNc1nc(Nc2ccc3c(c2)CC(=O)N3)ncc1C(F)(F)F)S(C)(=O)=O at 0.4 µM	108	71.9	85.9	244	212	128	101	96.8	65.5	48.8	139	155
Cc1cc([N+](=O)[O-])ccc1NS(=O)(=O)c1cc(Cl)ccc1Cl at 5 µM	118	136	206	35.7	127	130	111	91.3	33.1	165	108	141
Cn1nnc2c(C(N)=O)ncn2c1=O at 10 µM	1460	100	90.5	75.9	80.1	513	105	216	102	111	84.7	121
Nc1ccn([C@@H]2O[C@H](CO)[C@@H](O)C2(F)F)c(=O)n1 at 0.002 µM	82.8	124	115	94.5	45.6	259	226	462	340	349	223	817
CCN(CC)CCNC(=O)c1c(C)[nH]c(/C=C2\C(=O)Nc3ccc(F)cc32)c1C at 2 µM	104	81.1	186	159	163	191	128	103	125	84.9	132	26.5
N.N.[Cl][Pt][Cl] at 8 µM	140	96.7	123	71.1	68.0	91.4	75.3	25.9	112	74.9	91.9	129
C[C@]1(c2nc3c(C(N)=O)cccc3[nH]2)CCCN1 at 7 µM	146	90.1	100	61.1	109	137	161	87.8	201	191	92.0	65.1
Cn1c(=O)n(-c2ccc(C(C)(C)C#N)cc2)c2c3cc(-c4cnc5ccccc5c4)ccc3ncc21 at 0.02 µM	102	130	133	64.9	80.4	118	106	122	131	95.8	124	209
NC(=O)Nc1cc(-c2cccc(F)c2)sc1C(=O)N[C@H]1CCCNC1 at 0.1 µM	239	415	625	215	93.7	212	177	47.2	156	78.5	605	75.0
OCCn1cc(-c2cnc3nnn(Cc4ccc5ncccc5c4)c3n2)cn1 at 5 µM	54.0	69.5	111	33.3	142	139	141	57.5	85.1	61.2	89.1	114
CC(=O)c1c(C)c2cnc(Nc3ccc(N4CCNCC4)cn3)nc2n(C2CCCC2)c1=O at 0.2 µM	82.5	100	85.7	94.7	99.7	50.0	76.6	77.3	67.3	55.5	166	92.1
NCC(=O)Nc1ccc(-n2nc(C(F)(F)F)cc2-c2ccc3c(ccc4ccccc43)c2)cc1 at 5 µM	85.5	255	456	62.0	122	73.0	73.6	453	259	88.3	114	90.9
CC(C)C[C@H](NC(=O)[C@H](Cc1ccccc1)NC(=O)c1cnccn1)B(O)O at 0.005 µM	8840	207	2670	705	13500	1450	860	6580	90.6	140	5600	3440
Nc1cccc2c1CN(C1CCC(=O)NC1=O)C2=O (configuration not stated) at 5 µM	69.6	181	101	95.5	123	114	127	229	84.4	148	118	187
CCc1ccc(CCOc2ccc(CC3SC(=O)NC3=O)cc2)nc1 (configuration not stated) at 10 µM	103	90.2	62.5	121	122	88.4	53.6	88.9	32.0	176	87.2	167
Nc1nc(F)nc2c1ncn2[C@@H]1O[C@H](CO)[C@@H](O)[C@@H]1O at 1 µM	106	171	2650	157	75.2	97.0	126	76.5	182	251	88.1	153
COc1cc2c(Oc3ccc4[nH]c(C)cc4c3F)ncnc2cc1OCCCN1CCCC1 at 2 µM	83.1	105	156	39.8	40.5	74.3	86.9	102	133	198	82.4	72.2

The first 4 entries again:

Compound,WM1716,COLO 792,WM3526,RPMI-7951,MZ2-MEL,A2058,MeWo,IPC-298,COLO 800,MEL-HO,WM3619,COLO 829
CCCS(=O)(=O)Nc1ccc(F)c(C(=O)c2c[nH]c3ncc(Cl)cc23)c1F at 0.4 µM,447,90.7,252,71.3,182,115,154,44.1,85.0,83.4,78.2,438
Cc1cc(N2CCOCC2)cc2[nH]c(-c3c(NC[C@@H](O)c4cccc(Cl)c4)cc[nH]c3=O)nc12 at 1 µM,153,214,113,53.5,132,143,45.4,38.0,246,82.7,120,151
O=C(CCCCCCC(=O)Nc1ccccc1)NO at 0.4 µM,18.3,53.2,73.3,75.9,31.7,36.6,62.5,67.2,117,130,106,70.5
Cc1ccc(NC(=O)c2cccc(N(C)C)c2)cc1NC(=O)c1ccc(O)cc1 at 10 µM,111,144,157,259,73.4,91.5,120,144,125,221,112,40.9